Results are given in words; binding and its absence hold for the method and conditions named. Binding seen in cells or lysates may run through a third protein. A result given as binding can be weak or reduced; the word gives no strength. Tags and fused reporters may be left off the sequences shown.
Molecular target: T1, caveolin-1 (CAV1), CFP-tagged (UniProt P41350)
T1 sequence: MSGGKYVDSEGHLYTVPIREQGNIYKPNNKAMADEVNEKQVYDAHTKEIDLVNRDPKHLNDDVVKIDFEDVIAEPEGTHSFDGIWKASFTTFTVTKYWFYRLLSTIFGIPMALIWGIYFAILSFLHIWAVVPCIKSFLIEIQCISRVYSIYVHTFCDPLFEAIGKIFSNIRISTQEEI
Experiment: co-IP; HEK-293 AD cells co-transfected with c-Myc-Necc2 and CFP-Cav1; lysates and immunoprecipitates blotted with anti-cMyc and anti-GFP; precipitating antibody not stated

Protein sequences, listed by entry. Tags and fused reporters are not part of them. Lines headed by an entry give the natural chain unless they say otherwise; changes in a name come on top.
UniProt Q5VZ66: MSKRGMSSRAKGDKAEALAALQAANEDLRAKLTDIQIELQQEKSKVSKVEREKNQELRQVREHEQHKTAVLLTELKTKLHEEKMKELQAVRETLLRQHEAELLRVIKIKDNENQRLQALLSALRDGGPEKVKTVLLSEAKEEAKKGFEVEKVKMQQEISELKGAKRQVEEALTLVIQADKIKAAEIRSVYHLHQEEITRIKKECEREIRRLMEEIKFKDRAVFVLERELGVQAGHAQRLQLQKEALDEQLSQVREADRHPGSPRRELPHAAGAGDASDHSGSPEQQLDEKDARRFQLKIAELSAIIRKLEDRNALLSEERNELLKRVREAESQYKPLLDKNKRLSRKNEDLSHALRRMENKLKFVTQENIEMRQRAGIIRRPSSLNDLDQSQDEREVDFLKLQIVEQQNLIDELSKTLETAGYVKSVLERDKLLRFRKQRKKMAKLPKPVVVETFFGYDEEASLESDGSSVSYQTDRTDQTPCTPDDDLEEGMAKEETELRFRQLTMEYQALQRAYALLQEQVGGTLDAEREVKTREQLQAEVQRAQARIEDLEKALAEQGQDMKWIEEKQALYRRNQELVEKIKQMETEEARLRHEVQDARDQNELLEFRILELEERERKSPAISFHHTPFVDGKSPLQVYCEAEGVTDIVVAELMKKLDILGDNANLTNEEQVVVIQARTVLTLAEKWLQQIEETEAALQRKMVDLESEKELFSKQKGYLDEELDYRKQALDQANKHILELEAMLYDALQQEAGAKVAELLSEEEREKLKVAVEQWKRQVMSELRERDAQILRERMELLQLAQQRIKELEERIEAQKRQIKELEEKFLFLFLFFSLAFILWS

“neuroendocrine long coiled-coil protein-2 (NECC2), c-Myc-tagged (from UniProt Q5VZ66)” was tested, and the binding was “binds”.

From PMC6201366
